# Measurements from PubChem BioAssay AID504834 (National Center for Advancing Translational Sciences (NCATS), 2011).
# Hit rate of the full screen: of about 320,000 compounds, about 22,000 (6.9%) were called active. Inconclusive results, whose numbers are uncertain, are shown with a selection of clear calls. Calls follow the shape of the dose curve; as a rule, active = well fitted inhibition curve with a large enough effect; inconclusive = small, poorly fitted or top-dose-only effect, or another doubt; inactive = no such curve, though single readings can be large or run the other way. Where the call is inconclusive, the potency comes from a doubtful curve fit.
# Assay: Primary qHTS for delayed death inhibitors of the malarial parasite plastid, 96 hour incubation
# Conditions: P. falciparum luciferase reporter growth; series mostly up to 28.7 µM
# Summary of the method: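 P. falciparum expressing integrated firefly luciferase grown in erythrocytes (2% hematocrit, 0.05% parasitemia final) with compounds for 96 hours at 37 C, 5% CO2. Growth inhibition read as loss of luminescence after adding luciferase detection reagent.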
# Potency is read from the fitted curve at half-maximal effect.
row,Structure (SMILES),Potency
1,CCOc1ccccc1NC(=O)CSc1nc(=O)n(CCN2CCOCC2)c2c1CCCC2,"inconclusive: 11.7 µM [inhibitor, single point]"
2,CC1Cc2cc(/C(O)=C3/C(=O)C(=O)N(CCCn4ccnc4)C3c3ccco3)ccc2O1 (configuration not stated),active: 0.208 µM
3,O=C(Nc1ccc(F)cc1)c1cccc2ccccc12,inactive
4,CNC(=S)N1N=C(c2ccc(Br)cc2)CC1c1ccc(N(C)C)cc1 (configuration not stated),"inconclusive: 2.08 µM [inhibitor, full curve, poor fit]"
5,CN1c2ccc([N+](=O)[O-])cc2CC2(C(=O)NC(=O)NC2=O)C1c1ccccc1 (configuration not stated),"inconclusive: 9.28 µM [inhibitor, partial curve, poor fit]"
6,Cc1ccc(S(=O)(=O)NCCC(=O)OCC(=O)N2CCCC2=O)cc1C,inactive
7,Cc1cccc(OCCCC(=O)N2CCCCCC2)c1C,"inconclusive: 11.7 µM [inhibitor, single point]"
8,CCOc1ccc(-n2c(SCC(=O)Nc3cc(C)on3)nc3c([nH]c4ccccc43)c2=O)cc1,inactive
9,CCC1Oc2ccccc2N(CC(=O)NCCCN2CCCCC2CC)C1=O (configuration not stated),"inconclusive: 18.5 µM [inhibitor, single point]"
10,COc1ccc(C(CNc2ccc(S(=O)(=O)N3CCN(C)CC3)cc2[N+](=O)[O-])N(C)C)cc1 (configuration not stated),inactive
11,COc1ccc(NC(=O)CSc2ccc3c(c2)OCCO3)cc1OC,inactive
12,Cc1occc1C(=O)N1CCCC(Nc2ccc(F)cc2)C1 (configuration not stated),inactive
13,CCC(=O)N1c2ccc(S(=O)(=O)CCC(=O)Nc3nccs3)cc2CC1C (configuration not stated),"inconclusive: 4.65 µM [inhibitor, partial curve, poor fit]"
14,COc1ccc(C(C)=O)cc1CSc1ccccn1,inactive
15,Cc1cc2c(cc1C)C(c1ccccc1OC(C)C)CC(=O)N2 (configuration not stated),"inconclusive: 5.86 µM [inhibitor, partial curve]"
16,Cc1oc(-c2ccc(-c3ccccc3)cc2)nc1CN(C)C1CCOC1 (configuration not stated),"inconclusive: 18.5 µM [inhibitor, single point]"
17,CC1(c2ccccc2Cl)NC(=O)N(CC(=O)Nc2ccc(N3CCCCC3)cc2)C1=O (configuration not stated),"inconclusive: 11.7 µM [inhibitor, partial curve]"
18,O=C(c1ccccc1)N1CCN(C(=O)c2ccc(OC(F)(F)F)cc2)CC1,"inconclusive: 10.4 µM [inhibitor, single point]"
19,COc1ccc2[nH]c(CN3CCN(CCC(C)C)C(CCO)C3)c(C)c2c1 (configuration not stated),"inconclusive: 18.5 µM [inhibitor, single point]"
20,Cc1ccc(N2CCCn3c2nc2c3c(=O)n(CC(=O)OCc3ccccc3)c(=O)n2C)cc1C,active: 5.22 µM
21,Cc1nc2nc(SCC(=O)N3CCOCC3)nn2c(C)c1Cc1c(F)cccc1Cl,inactive
22,N#CC(C#N)=C1NC(N)=C(C#N)C(c2ccccc2)=C1C#N,inactive
23,CC(=O)N1CCN(S(=O)(=O)c2cccc(C(=O)Nc3cc(C(F)(F)F)ccc3N3CCOCC3)c2)CC1,"inconclusive: 5.86 µM [inhibitor, partial curve]"
24,Cc1cc(NC(=O)CCS(=O)(=O)c2nc(-c3ccccc3)cc(C(F)(F)F)n2)no1,inactive

# Part of the list above, reformatted:
row | Structure (SMILES) | Potency
3 | O=C(Nc1ccc(F)cc1)c1cccc2ccccc12 | inactive
4 | CNC(=S)N1N=C(c2ccc(Br)cc2)CC1c1ccc(N(C)C)cc1 (configuration not stated) | inconclusive: 2.08 µM [inhibitor, full curve, poor fit]
5 | CN1c2ccc([N+](=O)[O-])cc2CC2(C(=O)NC(=O)NC2=O)C1c1ccccc1 (configuration not stated) | inconclusive: 9.28 µM [inhibitor, partial curve, poor fit]
6 | Cc1ccc(S(=O)(=O)NCCC(=O)OCC(=O)N2CCCC2=O)cc1C | inactive

# The results go on:

row,Structure (SMILES),Potency
1,CCN(CC(=O)Nc1ccccc1C(F)(F)F)C(=O)C1CCN(C(=O)Nc2ccccc2)CC1,"inconclusive: 10.4 µM [inhibitor, single point]"
2,CCN(CC(=O)Nc1ccc(C(=O)Nc2ccc(OC)cc2)cc1)Cc1nc2ccccc2c(=O)[nH]1,"inconclusive: 2.33 µM [inhibitor, full curve]"
3,Cc1noc(NS(=O)(=O)c2ccc(NC(=O)CCC3CCCCC3)cc2)c1C,"inconclusive: 1.04 µM [inhibitor, partial curve]"
4,COc1ccc(NC(=S)N/N=C/c2cccn2Cc2ccccc2F)cc1,inactive
5,CCOc1ccc(-n2c(SCC(N)=O)nnc2-c2ccco2)cc1,active: 3.7 µM
6,CN(Cc1ccccc1)C(=O)c1cc2cc(F)ccc2[nH]1,"inconclusive: 0.0294 µM [inhibitor, full curve]"
7,CN(C)CCCNC(=O)/C=C/c1ccc(OCc2c(F)cccc2Cl)cc1,"inconclusive: 8.28 µM [inhibitor, partial curve, poor fit]"
8,O=[N+]([O-])c1ccc(C(O)CN2CCN(c3ccccc3)CC2)cc1 (configuration not stated),"inconclusive: 7.38 µM [inhibitor, partial curve, poor fit]"
9,Cc1ccc2nc(-c3ccc(NC(=O)CCN4C(=O)c5ccccc5C4=O)cc3)sc2c1,inactive
10,Cc1cc(Cl)c(S(=O)(=O)N2CCN(c3ccccn3)CC2)cc1OCC(=O)NC1CCCCC1,"inconclusive: 0.233 µM [inhibitor, full curve, poor fit]"
11,Cc1ccc(N=Cc2ccc(N(C)C)cc2)cc1C,"inconclusive: 18.5 µM [inhibitor, single point]"
12,CCC1Sc2ccc(S(=O)(=O)CCC(=O)Nc3ccc(NC(C)=O)cc3)cc2NC1=O (configuration not stated),active: 6.57 µM
13,CCc1ccc(/C=C/C(=O)c2ccc(N3CCOCC3)cc2)cc1,inactive
14,COc1ccc(Br)cc1/C=N/Nc1cccc(C(=O)O)c1,inactive
15,CC(C)[C@H](Nc1ncnc2c1oc1ccccc12)C(=O)O,inactive
16,O=[N+]([O-])/C=C1\NCCN1Cc1ccc(Cl)nc1,"inconclusive: 18.5 µM [inhibitor, single point]"
17,N=C1/C(=C\c2ccc(Br)o2)C(=O)N=C2SC(CC(=O)N3CCCCC3)=NN12,inactive
18,COc1cc(C)cc2oc(=O)c(CC(=O)N3C[C@H]4C[C@@H](C3)c3cccc(=O)n3C4)c(C)c12,"inconclusive: 18.5 µM [inhibitor, single point]"
19,CCn1cc(-c2csc(N)n2)c(C)n1,"inconclusive: 16.5 µM [inhibitor, partial curve, poor fit]"
20,Cc1ccc(C(=O)NCC(=O)OCC(=O)NC(C)C2CC3CCC2C3)cc1 (configuration not stated),inactive
21,C#CCOCCOCCOCCNc1nc(N2CCN(C(=O)[C@H]([C@@H](C)CC)n3cc([C@@H](N)CO)nn3)CC2)nc(N2CCN(C(=O)[C@H](Cc3cc4ccccc4[nH]3)n3cc([C@@H](N)Cc4ccc(O)cc4)nn3)CC2)n1,active: 2.94 µM
22,COC(=O)c1ccc(NC(=O)CN(c2ccc(C)cc2)S(=O)(=O)c2c(C)nn(C)c2C)cc1,"inconclusive: 13.1 µM [inhibitor, partial curve, poor fit]"
23,c1ccc(CNCc2ccco2)cc1,"inconclusive: 18.5 µM [inhibitor, single point]"
24,N#Cc1cnn(-c2nc(SCc3ccccc3)nc3sc4c(c23)CCCC4)c1N,"inconclusive: 18.5 µM [inhibitor, single point]"

row,Structure (SMILES),Potency
1,O=C(CCn1cnc2ccccc21)N/N=C/C=C/c1ccccc1,"inconclusive: 18.5 µM [inhibitor, single point]"
2,c1ccc(CNc2ncnc3c2cnn3Cc2ccccc2)cc1,"inconclusive: 10.4 µM [inhibitor, partial curve]"
3,O=c1c(Cl)c(N2CCN(c3ccc(F)cc3)CC2)cnn1C12CC3CC(CC(C3)C1)C2,active: 4.15 µM
4,COc1cc(COCC(O)CN2C(C)CCCC2C)cc(OC)c1OC (configuration not stated),inactive
5,Cc1ccn2c(Nc3ccccc3)c(-c3ccccn3)nc2c1,inactive
6,O=C(Nc1cc(C(F)(F)F)ccc1N1CCOCC1)c1ccc(F)cc1,inactive
7,N#CC1=C(SCC(=O)NC23CC4CC(CC(C4)C2)C3)NC(=O)C(C#N)C12CCCCC2 (configuration not stated),"inconclusive: 18.5 µM [inhibitor, single point]"
8,CC(=O)Nc1ccc(SC[C@H](Cc2ccccc2)N2CC[C@@H](C)CCC2=O)cc1,active: 3.29 µM
9,CCC(=O)N1CCN(c2ccc(Cl)cc2NC(=O)c2ccc3c(c2)OCCO3)CC1,inactive
10,COc1ccc(C)cc1NC(=O)CCNC(=O)Cn1ccc2ccccc2c1=O,"inconclusive: 5.22 µM [inhibitor, single point]"
11,O=C(NCCc1ccccc1)c1cc2ccccc2oc1=O,active: 9.28 µM
12,COc1ccc(S(=O)(=O)Nc2cc(Sc3ncn[nH]3)c(O)c3ccccc23)cc1,active: 2.94 µM
13,Cc1ccc(S(=O)(=O)Nc2nc3ccccc3nc2NCC2CCCO2)cc1 (configuration not stated),inactive
14,COc1ccc(CC(=O)OCC(=O)NCc2ccccc2Cl)cc1OC,inactive
15,COc1ccc(/C=N/NC(=S)Nc2ccccc2)cc1COc1ccc(F)cc1,"inconclusive: 11.7 µM [inhibitor, single point]"
16,CC(C)Oc1ccc(C(=O)N2CCN(C(=O)c3ccco3)CC2)cc1,active: 10.4 µM
17,COc1cc2[nH]c(C(=O)N3CCN(c4ccc(F)cc4)CC3)cc2c(OC)c1OC,inactive
18,Cc1ccc(C(=O)N/N=C/c2ccc(-c3ccccc3[N+](=O)[O-])o2)cn1,inactive
19,Cc1ccc(SCC(=O)OCc2csc(CC(=O)Nc3ccccc3C)n2)cc1C,inactive
20,CSc1c(CC(=O)Nc2ccccc2Cl)n(Cc2ccccc2)c2ccccc12,"inconclusive: 11.7 µM [inhibitor, single point]"
21,COc1ccc(Cn2cnc3c([N+](=O)[O-])c(C)c(C)cc32)cc1,"inconclusive: 4.65 µM [inhibitor, partial curve, poor fit]"
22,CCOC(=O)C1CCCCN1Cc1ccc(OC)c(OC)c1 (configuration not stated),inactive
23,Cc1ccc(NC(=O)CCNS(=O)(=O)c2ccc3c(c2)c(=O)n(C)c(=O)n3C)cc1C,"inconclusive: 9.28 µM [inhibitor, partial curve]"
24,OCC(Br)CBr (configuration not stated),"inconclusive: 2.94 µM [inhibitor, single point]"
